# Results are given in words; binding and its absence hold for the method and conditions named. Binding seen in cells or lysates may run through a third protein. A yes stands for co-enrichment or nearness to the bait. Other partners may have been found.
# T1: BRI2 (integral membrane protein 2B) (rat (endogenous in brain)) (UniProt Q5XIE8)
# T1 sequence: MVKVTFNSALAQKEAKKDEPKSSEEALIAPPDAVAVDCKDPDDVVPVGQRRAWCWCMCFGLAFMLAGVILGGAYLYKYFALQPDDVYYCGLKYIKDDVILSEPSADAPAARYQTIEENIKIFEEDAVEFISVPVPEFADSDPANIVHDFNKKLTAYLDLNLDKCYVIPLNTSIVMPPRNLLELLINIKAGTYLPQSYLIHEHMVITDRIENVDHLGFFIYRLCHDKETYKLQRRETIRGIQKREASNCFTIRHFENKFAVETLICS
# B1: Neurofilament medium polypeptide (protein, UniProt P12839 1-846)
# chain: MSYTLDSLGNPSAYRRVPTETRSSFSRVSGSPSSGFRSQSWSRGSPSTVSSSYKRSALAPRLAYSSAMLSSAESSLDFSQSSSLLNGGSGGDYKLSRSNEKEQLQGLNDRFAGYIEKVHYLEQQNKEIEAEIHALRQKQASHAQLGDAYDQEIRELRATLEMVNHEKAQVQLDSDHLEEDIHRLKERFEEEARLRDDTEAAIRAVRKDIEESSMVKVELDKKVQSLQDEVAFLRSNHEEEVADLLAQIQASHITVERKDYLKTDISTALKEIRSQLECHSDQNMHQAEEWFKCRYAKLTEAAEQNKEAIRSAKEEIAEYRRQLQSKSIELESVRGTKESLERQLSDIEERHNHDLSSYQDTIQQLENELRGTKWEMARHLREYQDLLNVKMALDIEIAAYRKLLEGEETRFSTFSGSITGPLYTHRQPSVTISSKIQKTKVEAPKLKVQHKFVEEIIEETKVEDEKSEMEDALTVIAEELAASAKEEKEEAEEKEEEPEVEKSPVKSPEAKEEEEGEKEEEEEGQEEEEEEDEGVKSDQAEEGGSEKEGSSEKDEGEQEEEGETEAEGEGEEAEAKEEKKTEGKVEEMAIKEEIKVEKPEKAKSPVPKSPVEEVKPKPEAKAGKDEQKEEEKVEEKKEVAKESPKEEKVEKKEEKPKDVPDKKKAESPVKEKAVEEMITITKSVKVSLEKDTKEEKPQQQEKVKEKAEEEGGSEEEVGDKSPQESKKEDIAINGEVEGKEEEEQETQEKGSGQEEEKGVVTNGLDVSPAEEKKGEDRSDDKVVVTKKVEKITSEGGDGATKYITKSVTVTQKVEEHEETFEEKLVSTKKVEKVTSHAIVKEVTQGD
# B2: Beta-adducin (protein, UniProt Q05764 1-725)
# chain: MSEDTVPEAASPPPSQGQHYFDRFSEDDPEYLRLRNRAADLRQDFNLMEQKKRVTMILQSPSFREELEGLIQEQMKKGNNSSNIWALRQIADFMASTSHAVFPASSMNFSMMTPINDLHTADSLNLAKGERLMRCKISSVYRLLDLYGWAQLSDTYVTLRVSKEQDHFLISPKGVSCSEVTASSLIKVNILGEVVEKGSSCFPVDTTGFSLHSAIYAARPDVRCAIHLHTPATAAVSAMKCGLLPVSHNALLVGDMAYYDFNGEMEQEADRINLQKCLGPTCKILVLRNHGMVALGDTVEEAFYKVFHLQAACEVQVSALSSAGGTENLILLEQEKHRPHEVGSVQWAGSTFGPMQKSRLGEHEFEALMRMLDNLGYRTGYTYRHPFVQEKTKHKSEVEIPATVTAFVFEEDGVPVPALRQHAQKQQKEKTRWLNTPNTYLRVNVADEVQRNMGSPRPKTTWMKADEVEKSSSGMPIRIENPNQFVPLYTDPQEVLDMRNKIREQNRQDIKSAGPQSQLLASVIAEKSRSPSTESQLASKGDADTKDELEETVPNPFSQLTDQELEEYKKEVERKKLEQEQEGEKDAATEEPGSPVKSTPASPVQSPTRAGTKSPAVSPSKASEDAKKTEVSEANTEPEPEKPEGVVVNGKEEEPCVEEVLSKGPGQMTTNADTDGDSYKDKTESVTSGPLSPEGSPSKSPSKKKKKFRTPSFLKKSKKKEKVES
# B3: Neurochondrin (protein, UniProt O35095 1-729)
# chain: MSCCDLAAAGQLGKAGIMASDCEPALNQAESRNPTLERYLGALREAKNDSEQFAALLLVTKAVKAGDIDAKTRRRIFDAVGFTFPNRLLTTKEAPDGCPDHVLRALGVALLACFCSDPELASHPQVLNKIPILCTFLTARGDPDDAARRSMIDDTYQCLTAVAGTPRGPRHLIAGGTVSALCQAYLGHGYGFDQALALLVGLLAAAETQCWKEAEPDLLAVLRGLSEDFQRAEDASKFELCQLLPLFLPPTTVPPECHRDLQAGLARILGSKLSSWQRNPALKLAARLAHACGSDWIPVGSSGSKFLALLVNLACVEVRLALEETGTEVKEDVVTACYALMELGIQECTRCEQSLLKEPQKVQLVSIMKEAIGAVIHYLLRVGPEKQKEPFVFASVRILGAWLAEETSSLRKEVCQLLPFLVRYAKTLYEEAEEASDISQQVANLAISPTTPGPAWPGDALRLLLPGWCHLTVEDGPREILIKEGAPSLLCKYFLQQWELTSPGHDTSVLPDSVEIGLQTCCHIFLNLVVTAPGLIKRDACFTSLMNTLMTSLPSLVQQQGRLLLAANVATLGLLMARLLSTSPALQGTPASRGFFAAAILFLSQSHVARATPGSDQAVLALSPDYEGIWADLQELWFLGMQAFTGCVPLLPWLAPAALRSRWPQELLQLLGSVSPNSVKPEMVAAYQGVLVELARANRLCREAMRLQAGEETASHYRMAALEQCLSEP
# B4: Reticulon-1 (protein, UniProt Q64548 1-777)
# chain: MAAPPDLQDEPLSPANPGSQLFGGRGEGEEATPKGARPAQQDGEPAWGSGAGAGVVSSRGLCSGPARSPPVAMETASTGVAAVPDALDHSSSPTLKDGEGACYTSLISDICYPPREDSAYFTGILQKENGHITTSESPEELGTPGPSLPEVPGTEPHGLLSSDSGIEMTPAESTEVNKILADPLDQMKAEACKYIDITRPQEAKGQEEQSPGLEDKDLDFKDKDSEVSTKPEGVHAPNQPSPVEGKLIKDNLFEESTFAPYIDELSDEQHRMSLVTAPVKITLTEIGPPVMTATHETIPEKQDLCLKPSPDTVPTVTVSEPEDDSPGSVTPPSSGTEPSAAESQGKGSVSEDELIAAIKEAKGLSYETTESPRPVGQAADRPKVKARSGLPTIPSSLDQEASSAESGDSEIELVSEDPMASEDALPSGYVSFGHVSGPPPSPASPSIQYSILREEREAELDSELIIESCDASSASEESPKREQDSPPMKPGVLDAIREETSSRATEERAPSHQGPVEPDPILSFTPVTLQSRPEPSSGDGAPVPEPPKSQQQKPEEEAVSSSQSPAATEIPGPLGSDLVPPLPFFNKQKAIDLLYWRDIKQTGIVFGSFLLLLFSLTQFSVVSVVAYLALAALSATISFRIYKSVLQAVQKTDEGHPFKAYLELEITLSQEQIQKYTDCLQLYVNSTLKELRRLFLVQDLVDSLKFAVLMWLLTYVGALFNGLTLLLMAVVSMFTLPVVYVKHQAQVDQYLGLVRTHINTVVAKIQAKIPGAKRHAE
# B5: Neuronal migration protein doublecortin (protein, UniProt Q9ESI7 1-365)
# chain: MELDFGHFDERDKASRNMRGSRMNGLPSPTHSAHCSFYRTRTLQALSNEKKAKKVRFYRNGDRYFKGIVYAVSSDRFRSFDALLADLTRSLSDNINLLQGVRYIYTIDGSRKIGSMDELEEGESYVCSSDNFFKKVEYTKNVNPNWSVNVKTSANMKAPQSLASSNSAQARENKDFVRPKLVTIIRSGVKPRKAVRVLLNKKTAHSFEQVLTDITEAIKLETGVVKKLYTLDGKQVTCLHDFFGDDDVFIACGPEKFRYAQDDFSLDENECRVMKGNPSATAGPKASPTPQKTSAKSPGPMRRSKSPADSGNDQDANGTSSSQLSTPKSKQSPISTPTSPGSLRKHKDLYLPLSLDDSDSLGDSM
# B6: Ras-related protein Rab-3C (protein, UniProt P62824 1-227)
# chain: MRHEAPMQMASAQDARFGQKDSSDQNFDYMFKLLIIGNSSVGKTSFLFRYADDSFTSAFVSTVGIDFKVKTVFKNEKRIKLQIWDTAGQERYRTITTAYYRGAMGFILMYDITNEESFNAVQDWSTQIKTYSWDNAQVILAGNKCDMEDERVVSTERGQRLGEQLGFEFFETSAKDNINVKQTFERLVDIICDKMSESLETDPAITAAKQSTRLKETPPPPQPNCGC
# B7: Ras-related protein Rab-3A (protein, UniProt P63012 1-220)
# chain: MASATDSRYGQKESSDQNFDYMFKILIIGNSSVGKTSFLFRYADDSFTPAFVSTVGIDFKVKTIYRNDKRIKLQIWDTAGQERYRTITTAYYRGAMGFILMYDITNEESFNAVQDWSTQIKTYSWDNAQVLLVGNKCDMEDERVVSSERGRQLADHLGFEFFEASAKDNINVKQTFERLVDVICEKMSESLDTADPAVTGAKQGPQLTDQQAPPHQDCAC
# B8: Neurofilament light polypeptide (protein, UniProt P19527 1-542)
# chain: MSSFSYEPYFSTSYKRRYVETPRVHISSVRSGYSTARSAYSSYSAPVSSSLSVRRSYSSSSGSLMPSLENLDLSQVAAISNDLKSIRTQEKAQLQDLNDRFASFIERVHELEQQNKVLEAELLVLRQKHSEPSRFRALYEQEIRDLRLAAEDATNEKQALQGEREGLEETLRNLQARYEEEVLSREDAEGRLMEARKGADEAALARAELEKRIDSLMDEIAFLKKVHEEEIAELQAQIQYAQISVEMDVSSKPDLSAALKDIRAQYEKLAAKNMQNAEEWFKSRFTVLTESAAKNTDAVRAAKDEVSESRRLLKAKTLEIEACRGMNEALEKQLQELEDKQNADISAMQDTINKLENELRSTKSEMARYLKEYQDLLNVKMALDIEIAAYRKLLEGEETRLSFTSVGSITSGYSQSSQVFGRSAYSGLQSSSYLMSARAFPAYYTSHVQEEQSEVEETIEATKAEEAKDEPPSEGEAEEEEKEKEEGEEEEGAEEEEAAKDESEDAKEEEGGEGEEEDTKESEEEEKKEESAGEEQAAKKKD
# B9: Myelin-oligodendrocyte glycoprotein (protein, UniProt Q63345 28-245)
# chain: GQFRVIGPGHPIRALVGDEAELPCRISPGKNATGMEVGWYRSPFSRVVHLYRNGKDQDAEQAPEYRGRTELLKESIGEGKVALRIQNVRFSDEGGYTCFFRDHSYQEEAAVELKVEDPFYWINPGVLALIALVPMLLLQVSVGLVFLFLQHRLRGKLRAEVENLHRTFDPHFLRVPCWKITLFVIVPVLGPLVALIICYNWLHRRLAGQFLEELRNPF
# B10: Neuromodulin (protein, UniProt P07936 1-226)
# chain: MLCCMRRTKQVEKNDEDQKIEQDGVKPEDKAHKAATKIQASFRGHITRKKLKDEKKGDAPAAEAEAKEKDDAPVADGVEKKEGDGSATTDAAPATSPKAEEPSKAGDAPSEEKKGEGDAAPSEEKAGSAETESAAKATTDNSPSSKAEDGPAKEEPKQADVPAAVTDAAATTPAAEDAAKAAQPPTETAESSQAEEEKEAVDEAKPKESARQDEGKEDPEADQEHA
# B11: Beta-soluble NSF attachment protein (protein, UniProt P85969 1-297)
# chain: MDNAGKEREAVQLMAEAEKRVKASHSFLRGLFGGNTRIEEACEMYTRAANMFKMAKNWSAAGNAFCQAAKLHMQLQSKHDSATSFVDAGNAYKKADPQEAINCLNAAIDIYTDMGRFTIAAKHHITIAEIYETELVDIEKAIAHYEQSADYYKGEESNSANKCLLKVAAYAAQLEQYQKAIEIYEQVGANTMDNPLLKYSAKDYFFKAALCHFIVDELNAKLALEKYEEMFPAFTDSRECKLLKKLLEAHEEQNSEAYTEAVKEFDSISRLDQWLTTMLLRIKKSIQGDGEGDGDLK
# B12: Neurotrimin (protein, UniProt Q62718 33-321)
# chain: SGDATFPKAMDNVTVRQGESATLRCTIDNRVTRVAWLNRSTILYAGNDKWCLDPRVVLLSNTQTQYSIEIQNVDVYDEGPYTCSVQTDNHPKTSRVHLIVQVSPKIVEISSDISINEGNNISLTCIATGRPEPTVTWRHISPKAVGFVSEDEYLEIQGITREQSGEYECSASNDVAAPVVRRVNVTVNYPPYISEAKGTGVPVGQKGTLQCEASAVPSAEFQWFKDDKRLVEGKKGVKVENRPFLSRLTFFNVSEHDYGNYTCVASNKLGHTNASIMLFGPGAVSEVNN
# Molecular target: T1, BRI2 (integral membrane protein 2B) (rat (endogenous in brain))
# Assay: affinity purification with mass spectrometry; mouse anti-BRI2 antibody (N-terminal region) on Dynabeads Protein G; pre-cleared rat cerebral cortex, hippocampus and cerebellum lysates (50 mM Tris-HCl pH 8.0, 120 mM NaCl, 4% CHAPS), overnight at 4 °C; co-precipitated proteins identified by nano-HPLC-MS/MS; hits absent from the two mock IPs or with a PSM ratio >= 2.0
row,binding,Binder
1,binds,B1
2,binds,B2
3,binds,B3
4,binds,B4
5,binds,B5
6,binds,B6
7,binds,B7
8,binds,B8
9,binds,B9
10,binds,B10
11,binds,B11
12,binds,B12
